Laboratory results: PubChem BioAssay AID1259308 (NCATS, 2017)
Purpose: 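Genes whose loss raises luciferase production in HEK293 cells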 (primary screen). System: human HEK293 embryonic kidney cells stably expressing firefly luciferase (HEK-CMV-Luc2-Hygro). Reagents: single siRNA against human genes, 0.8 pmol siRNA per well. Time to read-out: 72 h. Read-out: 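Luciferase light (ONE-Glo) measured on one replicate plate set and viability (CellTiter-Glo) on the other, scaled to a negative control siRNA, with robust z-scores and luciferase per cell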. Direction: total luciferase, z-score and total luciferase, % of control: higher = more reporter protein produced; luciferase per cell, z-score: higher = more reporter output per viable cell; viable cells, % of control: higher = more viable cells. Active means: 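Active when the median/MAD z-score for overall luciferase is greater than 3; a gene was taken forward for validation with new siRNAs if at least two of its three siRNAs passed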. Meaning of the calls: active = raised luciferase; inactive = no rise.
The deposit covers about 59,000 reagents; shown is a random part of them. Of all reagents, about 1,510 (2.6%) were called active. 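Calls use total luciferase alone and ignore viability, so some active siRNAs may act by altering cell number.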 The numbers tell different reagents against one gene apart.

| target | reagent no. | total luciferase, z-score | total luciferase, % of control | luciferase per cell, z-score | viable cells, % of control | call |
| --- | --- | --- | --- | --- | --- | --- |
| GPR137C (GeneID 283554) | 1 | 0.792 | 97.6 | 0.258 | 102 | inactive |
| GPR137C (GeneID 283554) | 2 | 0.272 | 87.3 | -0.558 | 113 | inactive |
| GPR137C (GeneID 283554) | 3 | 0.796 | 97.7 | 0.436 | 97.4 | inactive |
| CCL22 (GeneID 6367) | 1 | -0.385 | 74.2 | -0.48 | 94.1 | inactive |
| CCL22 (GeneID 6367) | 2 | -0.984 | 62.3 | -1.05 | 91.7 | inactive |
| CCL22 (GeneID 6367) | 3 | -0.635 | 69.3 | -1.05 | 102 | inactive |
| CERS4 (GeneID 79603) | 1 | 0.481 | 91.5 | 0.646 | 86.2 | inactive |
| CERS4 (GeneID 79603) | 2 | -0.245 | 77 | -0.599 | 101 | inactive |
| CERS4 (GeneID 79603) | 3 | -0.624 | 69.5 | -0.318 | 84.4 | inactive |
| CDC27P5 (GeneID 647654) | 1 | 0.48 | 91.4 | 0.813 | 82.5 | inactive |
| CDC27P5 (GeneID 647654) | 2 | 0.846 | 98.7 | 1.98 | 65.5 | inactive |
| CDC27P5 (GeneID 647654) | 3 | -1.21 | 57.8 | -1.05 | 85.3 | inactive |
| MARCHF2 (GeneID 51257) | 1 | 1.02 | 102 | 0.867 | 90.8 | inactive |
| MARCHF2 (GeneID 51257) | 2 | -0.802 | 65.9 | -0.839 | 91.9 | inactive |
| MARCHF2 (GeneID 51257) | 3 | -0.769 | 66.6 | -1.28 | 104 | inactive |
| MGAT5 (GeneID 4249) | 1 | 2.53 | 132 | 3.53 | 58.3 | inactive |
| MGAT5 (GeneID 4249) | 2 | -0.281 | 76.3 | -0.533 | 98.1 | inactive |
| MGAT5 (GeneID 4249) | 3 | 0.25 | 86.9 | -0.0199 | 97.6 | inactive |
| ZNF521 (GeneID 25925) | 1 | -0.623 | 69.5 | -0.693 | 93.2 | inactive |
| ZNF521 (GeneID 25925) | 2 | 0.864 | 99.1 | 0.537 | 96.1 | inactive |
| ZNF521 (GeneID 25925) | 3 | 1.3 | 108 | 0.645 | 102 | inactive |

Look-ups from the list:
For “luciferase per cell, z-score”, CDC27P5 (GeneID 647654) #1 has 0.813
Result for MARCHF2 (GeneID 51257) #1 under “call”: inactive
For “luciferase per cell, z-score”, ZNF521 (GeneID 25925) #3 shows 0.645
CCL22 (GeneID 6367) #2, total luciferase, z-score = -0.984
Entry of GPR137C (GeneID 283554) #1 under “luciferase per cell, z-score”: 0.258
Value for MGAT5 (GeneID 4249) #2 in “call”: inactive

The results go on.
| target | reagent no. | total luciferase, z-score | total luciferase, % of control | luciferase per cell, z-score | viable cells, % of control | call |
| --- | --- | --- | --- | --- | --- | --- |
| MROH9 (GeneID 80133) | 1 | 0.311 | 88.1 | 0.868 | 78.3 | inactive |
| MROH9 (GeneID 80133) | 2 | -0.223 | 77.4 | -0.523 | 99.3 | inactive |
| MROH9 (GeneID 80133) | 3 | -0.511 | 71.7 | -0.598 | 93.8 | inactive |
| CIRBP (GeneID 1153) | 1 | -0.331 | 75.3 | -0.399 | 93.5 | inactive |
| CIRBP (GeneID 1153) | 2 | 0.687 | 95.5 | -0.0733 | 109 | inactive |
| CIRBP (GeneID 1153) | 3 | 0.356 | 89 | 0.033 | 98.6 | inactive |
| TCP10L (GeneID 140290) | 1 | -1.44 | 53.3 | -1.8 | 95.8 | inactive |
| TCP10L (GeneID 140290) | 2 | -0.518 | 71.6 | -0.659 | 95.2 | inactive |
| TCP10L (GeneID 140290) | 3 | -0.0639 | 80.6 | -0.0146 | 90.4 | inactive |
| ING3 (GeneID 54556) | 1 | 2.41 | 130 | 1.54 | 96.7 | inactive |
| ING3 (GeneID 54556) | 2 | 0.687 | 95.5 | 0.632 | 90.4 | inactive |
| ING3 (GeneID 54556) | 3 | 0.287 | 87.6 | 0.543 | 84.9 | inactive |
| ANK1 (GeneID 286) | 1 | -0.44 | 73.1 | -1.04 | 107 | inactive |
| ANK1 (GeneID 286) | 2 | 1.93 | 120 | 0.669 | 113 | inactive |
| ANK1 (GeneID 286) | 3 | -1.05 | 60.9 | -0.898 | 86.3 | inactive |
| RBP3 (GeneID 5949) | 1 | 0.507 | 92 | 0.233 | 96.7 | inactive |
| RBP3 (GeneID 5949) | 2 | -1.77 | 46.7 | -2.48 | 100 | inactive |
| RBP3 (GeneID 5949) | 3 | -0.992 | 62.2 | -0.968 | 89.6 | inactive |
| CCND1 (GeneID 595) | 1 | -1.57 | 50.6 | -1.55 | 84.9 | inactive |
| CCND1 (GeneID 595) | 2 | 0.241 | 86.7 | -0.0526 | 98.2 | inactive |
| CCND1 (GeneID 595) | 3 | 0.954 | 101 | 0.767 | 92.1 | inactive |
| TBC1D3P2 (GeneID 440452) | 1 | -0.181 | 78.3 | 0.172 | 83.6 | inactive |
| TBC1D3P2 (GeneID 440452) | 2 | -0.496 | 72 | 0.0672 | 79.1 | inactive |
| TBC1D3P2 (GeneID 440452) | 3 | 0.0589 | 83.1 | 0.1 | 90.4 | inactive |
| SMIM21 (GeneID 284274) | 1 | 4.02 | 162 | 2.51 | 93.5 | active |
| SMIM21 (GeneID 284274) | 2 | -0.593 | 70.1 | 0.0192 | 77.9 | inactive |
| SMIM21 (GeneID 284274) | 3 | -0.712 | 67.7 | -1.76 | 120 | inactive |
| KIF3C (GeneID 3797) | 1 | -1 | 61.9 | -1.12 | 92.9 | inactive |
| KIF3C (GeneID 3797) | 2 | 0.829 | 98.4 | 0.901 | 86.7 | inactive |
| KIF3C (GeneID 3797) | 3 | -0.889 | 64.2 | -0.205 | 75.7 | inactive |
| ZMIZ1 (GeneID 57178) | 1 | 0.0107 | 82.1 | -0.6 | 107 | inactive |
| ZMIZ1 (GeneID 57178) | 2 | -0.491 | 72.1 | -0.897 | 102 | inactive |
| ZMIZ1 (GeneID 57178) | 3 | -0.224 | 77.4 | -0.758 | 106 | inactive |
| ALDH8A1 (GeneID 64577) | 1 | -0.724 | 67.5 | 0.276 | 70.1 | inactive |
| ALDH8A1 (GeneID 64577) | 2 | -0.171 | 78.5 | -0.753 | 107 | inactive |
| ALDH8A1 (GeneID 64577) | 3 | 0.188 | 85.6 | 0.423 | 85.6 | inactive |
